Data published in PMC12080455.
No constants are given. Whether binding was seen depends on the method and setting. Binding seen in cells or lysates may run through a third protein. Here binding means that the protein was enriched with, or labelled near, the bait; the list need not be complete. Blank lines part the entries; values can stand above or below the molecule they belong to.

The chains behind the UniProt entries cited, without tags or fusion partners. Where a name states a change or a piece, a line headed by the entry shows the natural chain unless it says otherwise.
UniProt O14647: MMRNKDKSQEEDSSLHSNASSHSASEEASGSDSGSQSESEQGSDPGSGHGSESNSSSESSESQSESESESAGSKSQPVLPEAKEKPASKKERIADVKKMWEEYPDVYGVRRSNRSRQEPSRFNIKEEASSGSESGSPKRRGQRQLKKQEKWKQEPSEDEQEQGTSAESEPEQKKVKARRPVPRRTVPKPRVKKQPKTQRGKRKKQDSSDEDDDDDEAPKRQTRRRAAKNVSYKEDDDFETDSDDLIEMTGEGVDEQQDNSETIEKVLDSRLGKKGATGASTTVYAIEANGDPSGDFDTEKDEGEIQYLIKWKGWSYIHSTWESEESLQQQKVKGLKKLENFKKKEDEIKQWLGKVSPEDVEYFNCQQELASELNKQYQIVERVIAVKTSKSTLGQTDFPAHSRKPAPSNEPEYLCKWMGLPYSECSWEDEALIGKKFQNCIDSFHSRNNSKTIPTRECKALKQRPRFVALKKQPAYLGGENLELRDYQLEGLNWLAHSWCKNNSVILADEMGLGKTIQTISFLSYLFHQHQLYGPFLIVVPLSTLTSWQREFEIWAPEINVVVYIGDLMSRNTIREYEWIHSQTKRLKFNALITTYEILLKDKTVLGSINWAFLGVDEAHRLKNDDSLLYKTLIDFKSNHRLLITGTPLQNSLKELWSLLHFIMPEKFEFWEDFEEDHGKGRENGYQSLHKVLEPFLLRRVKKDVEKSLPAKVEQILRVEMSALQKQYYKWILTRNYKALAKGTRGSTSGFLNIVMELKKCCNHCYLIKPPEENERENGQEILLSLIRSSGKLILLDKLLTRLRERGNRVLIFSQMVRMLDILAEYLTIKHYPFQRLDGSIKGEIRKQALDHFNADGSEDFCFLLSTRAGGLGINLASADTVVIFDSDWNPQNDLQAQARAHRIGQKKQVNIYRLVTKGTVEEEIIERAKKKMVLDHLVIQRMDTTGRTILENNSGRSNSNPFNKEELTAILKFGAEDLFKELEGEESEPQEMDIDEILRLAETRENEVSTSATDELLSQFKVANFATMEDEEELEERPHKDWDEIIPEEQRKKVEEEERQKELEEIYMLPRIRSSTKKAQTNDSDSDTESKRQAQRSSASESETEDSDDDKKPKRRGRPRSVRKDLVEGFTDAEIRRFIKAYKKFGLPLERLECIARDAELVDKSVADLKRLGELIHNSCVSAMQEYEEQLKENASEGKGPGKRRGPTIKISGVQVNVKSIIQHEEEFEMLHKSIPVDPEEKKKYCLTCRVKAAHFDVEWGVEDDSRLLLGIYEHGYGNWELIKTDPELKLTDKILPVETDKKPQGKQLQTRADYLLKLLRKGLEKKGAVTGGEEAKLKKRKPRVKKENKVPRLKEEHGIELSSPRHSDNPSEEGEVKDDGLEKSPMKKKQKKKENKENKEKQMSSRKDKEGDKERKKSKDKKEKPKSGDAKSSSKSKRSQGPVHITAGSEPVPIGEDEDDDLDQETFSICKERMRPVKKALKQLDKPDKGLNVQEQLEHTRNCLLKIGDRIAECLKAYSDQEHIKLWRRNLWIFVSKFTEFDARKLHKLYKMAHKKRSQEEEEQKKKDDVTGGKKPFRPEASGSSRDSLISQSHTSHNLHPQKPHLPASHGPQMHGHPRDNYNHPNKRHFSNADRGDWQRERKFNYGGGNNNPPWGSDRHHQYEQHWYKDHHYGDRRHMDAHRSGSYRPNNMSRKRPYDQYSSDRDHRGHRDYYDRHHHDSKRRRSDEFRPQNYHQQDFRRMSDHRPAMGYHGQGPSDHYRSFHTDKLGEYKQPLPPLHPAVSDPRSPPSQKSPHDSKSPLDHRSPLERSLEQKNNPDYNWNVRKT
UniProt P39687: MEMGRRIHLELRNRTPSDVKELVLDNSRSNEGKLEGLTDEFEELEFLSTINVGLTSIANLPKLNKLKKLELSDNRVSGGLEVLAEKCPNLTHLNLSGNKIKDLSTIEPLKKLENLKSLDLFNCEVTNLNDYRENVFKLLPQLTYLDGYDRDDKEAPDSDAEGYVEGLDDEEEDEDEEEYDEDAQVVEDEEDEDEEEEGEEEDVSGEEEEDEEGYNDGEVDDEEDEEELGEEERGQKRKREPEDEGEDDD
UniProt Q92688: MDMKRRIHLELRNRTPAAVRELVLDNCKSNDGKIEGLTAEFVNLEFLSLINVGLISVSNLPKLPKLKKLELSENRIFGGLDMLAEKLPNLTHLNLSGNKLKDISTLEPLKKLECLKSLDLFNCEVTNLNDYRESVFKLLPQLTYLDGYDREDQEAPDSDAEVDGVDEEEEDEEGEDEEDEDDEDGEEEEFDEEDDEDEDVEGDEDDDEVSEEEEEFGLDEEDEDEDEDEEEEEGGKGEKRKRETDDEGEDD
UniProt P67870: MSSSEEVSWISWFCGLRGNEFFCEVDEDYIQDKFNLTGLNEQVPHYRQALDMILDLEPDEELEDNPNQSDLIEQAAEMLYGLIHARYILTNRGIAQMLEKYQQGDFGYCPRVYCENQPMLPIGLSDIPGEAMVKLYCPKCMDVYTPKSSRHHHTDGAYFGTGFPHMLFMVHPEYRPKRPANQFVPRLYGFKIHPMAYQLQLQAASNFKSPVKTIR
UniProt Q9H9B1: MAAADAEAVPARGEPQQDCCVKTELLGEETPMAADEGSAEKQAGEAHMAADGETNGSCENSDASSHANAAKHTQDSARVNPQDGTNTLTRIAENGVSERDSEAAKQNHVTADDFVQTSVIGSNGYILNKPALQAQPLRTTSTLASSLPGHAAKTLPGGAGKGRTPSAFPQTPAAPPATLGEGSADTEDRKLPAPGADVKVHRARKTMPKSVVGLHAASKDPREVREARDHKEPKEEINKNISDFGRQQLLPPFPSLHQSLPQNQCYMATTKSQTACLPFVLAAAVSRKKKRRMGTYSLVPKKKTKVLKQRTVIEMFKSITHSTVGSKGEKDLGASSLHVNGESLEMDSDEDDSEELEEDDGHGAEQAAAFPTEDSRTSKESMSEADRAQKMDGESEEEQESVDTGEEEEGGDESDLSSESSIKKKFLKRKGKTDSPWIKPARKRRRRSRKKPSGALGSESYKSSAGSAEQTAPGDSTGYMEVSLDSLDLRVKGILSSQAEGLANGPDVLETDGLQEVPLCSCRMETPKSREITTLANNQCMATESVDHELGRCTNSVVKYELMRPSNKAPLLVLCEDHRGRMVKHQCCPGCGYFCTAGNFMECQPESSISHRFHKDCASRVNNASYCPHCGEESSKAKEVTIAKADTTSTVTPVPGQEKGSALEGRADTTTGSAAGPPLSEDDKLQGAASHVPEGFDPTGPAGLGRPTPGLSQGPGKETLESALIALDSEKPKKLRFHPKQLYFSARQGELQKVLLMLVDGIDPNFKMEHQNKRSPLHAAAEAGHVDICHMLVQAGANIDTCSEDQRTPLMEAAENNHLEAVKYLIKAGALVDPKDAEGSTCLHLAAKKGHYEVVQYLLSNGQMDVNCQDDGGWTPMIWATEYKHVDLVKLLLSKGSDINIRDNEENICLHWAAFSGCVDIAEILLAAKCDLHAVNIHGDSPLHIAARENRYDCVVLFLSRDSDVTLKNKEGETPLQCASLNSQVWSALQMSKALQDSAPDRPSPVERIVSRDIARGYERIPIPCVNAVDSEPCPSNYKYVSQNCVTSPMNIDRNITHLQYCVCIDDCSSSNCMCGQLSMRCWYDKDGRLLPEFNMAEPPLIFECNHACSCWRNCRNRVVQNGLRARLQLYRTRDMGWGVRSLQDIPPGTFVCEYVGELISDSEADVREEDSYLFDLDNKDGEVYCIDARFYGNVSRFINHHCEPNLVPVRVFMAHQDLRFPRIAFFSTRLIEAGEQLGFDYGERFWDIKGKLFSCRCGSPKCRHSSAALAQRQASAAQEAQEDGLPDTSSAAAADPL
UniProt Q96KQ7: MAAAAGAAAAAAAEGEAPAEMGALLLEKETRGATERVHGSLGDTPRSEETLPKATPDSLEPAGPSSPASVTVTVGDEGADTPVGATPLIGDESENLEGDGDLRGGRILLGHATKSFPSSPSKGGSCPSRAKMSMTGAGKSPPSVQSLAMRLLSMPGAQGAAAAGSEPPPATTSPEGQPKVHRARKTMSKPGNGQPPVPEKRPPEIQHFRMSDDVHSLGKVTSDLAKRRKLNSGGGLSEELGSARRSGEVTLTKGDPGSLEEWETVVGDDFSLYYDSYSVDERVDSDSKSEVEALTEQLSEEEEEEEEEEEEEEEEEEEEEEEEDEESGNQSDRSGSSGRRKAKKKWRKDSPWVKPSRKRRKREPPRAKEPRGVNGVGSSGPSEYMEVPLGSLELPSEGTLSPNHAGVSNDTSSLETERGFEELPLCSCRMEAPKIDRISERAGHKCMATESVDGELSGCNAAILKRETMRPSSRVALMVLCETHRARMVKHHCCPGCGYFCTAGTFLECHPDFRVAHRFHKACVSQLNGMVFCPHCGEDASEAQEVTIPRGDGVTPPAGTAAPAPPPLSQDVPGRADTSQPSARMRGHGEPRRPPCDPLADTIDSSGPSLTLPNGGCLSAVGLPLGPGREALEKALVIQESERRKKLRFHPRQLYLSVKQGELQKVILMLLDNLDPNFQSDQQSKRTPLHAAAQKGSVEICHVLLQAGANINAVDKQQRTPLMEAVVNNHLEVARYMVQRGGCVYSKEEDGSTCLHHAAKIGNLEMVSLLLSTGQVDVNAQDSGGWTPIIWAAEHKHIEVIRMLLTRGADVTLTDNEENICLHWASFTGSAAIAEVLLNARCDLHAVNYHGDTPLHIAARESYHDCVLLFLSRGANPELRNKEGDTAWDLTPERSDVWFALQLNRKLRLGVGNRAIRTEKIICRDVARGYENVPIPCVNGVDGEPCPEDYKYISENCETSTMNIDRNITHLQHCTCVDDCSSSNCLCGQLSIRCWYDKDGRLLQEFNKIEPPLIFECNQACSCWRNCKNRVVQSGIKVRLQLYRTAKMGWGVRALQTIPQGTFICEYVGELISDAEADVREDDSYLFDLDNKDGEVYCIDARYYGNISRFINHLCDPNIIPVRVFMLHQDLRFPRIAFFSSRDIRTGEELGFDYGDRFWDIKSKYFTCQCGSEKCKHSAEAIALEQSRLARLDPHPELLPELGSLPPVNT
UniProt Q5VWQ0: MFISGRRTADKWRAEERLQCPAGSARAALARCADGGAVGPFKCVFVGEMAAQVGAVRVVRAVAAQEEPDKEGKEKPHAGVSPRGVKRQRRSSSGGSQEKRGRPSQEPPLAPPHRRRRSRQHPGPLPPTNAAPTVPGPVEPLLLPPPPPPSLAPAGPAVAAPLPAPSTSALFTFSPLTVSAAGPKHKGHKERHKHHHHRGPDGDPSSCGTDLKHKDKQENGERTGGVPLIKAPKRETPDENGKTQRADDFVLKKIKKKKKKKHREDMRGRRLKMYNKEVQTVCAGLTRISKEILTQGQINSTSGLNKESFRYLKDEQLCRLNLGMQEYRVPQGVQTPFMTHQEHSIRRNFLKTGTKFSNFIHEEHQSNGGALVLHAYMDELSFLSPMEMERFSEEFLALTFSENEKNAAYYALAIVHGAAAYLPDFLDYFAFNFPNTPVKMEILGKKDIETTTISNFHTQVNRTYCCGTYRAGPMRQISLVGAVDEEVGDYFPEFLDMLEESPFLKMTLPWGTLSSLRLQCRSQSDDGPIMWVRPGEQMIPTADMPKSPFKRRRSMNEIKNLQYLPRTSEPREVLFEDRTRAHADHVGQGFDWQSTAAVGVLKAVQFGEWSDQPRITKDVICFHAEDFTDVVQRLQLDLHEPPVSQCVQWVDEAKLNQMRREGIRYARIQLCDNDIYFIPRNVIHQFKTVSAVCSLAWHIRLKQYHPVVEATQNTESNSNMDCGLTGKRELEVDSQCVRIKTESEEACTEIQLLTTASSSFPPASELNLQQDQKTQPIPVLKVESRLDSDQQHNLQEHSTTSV
UniProt Q08945: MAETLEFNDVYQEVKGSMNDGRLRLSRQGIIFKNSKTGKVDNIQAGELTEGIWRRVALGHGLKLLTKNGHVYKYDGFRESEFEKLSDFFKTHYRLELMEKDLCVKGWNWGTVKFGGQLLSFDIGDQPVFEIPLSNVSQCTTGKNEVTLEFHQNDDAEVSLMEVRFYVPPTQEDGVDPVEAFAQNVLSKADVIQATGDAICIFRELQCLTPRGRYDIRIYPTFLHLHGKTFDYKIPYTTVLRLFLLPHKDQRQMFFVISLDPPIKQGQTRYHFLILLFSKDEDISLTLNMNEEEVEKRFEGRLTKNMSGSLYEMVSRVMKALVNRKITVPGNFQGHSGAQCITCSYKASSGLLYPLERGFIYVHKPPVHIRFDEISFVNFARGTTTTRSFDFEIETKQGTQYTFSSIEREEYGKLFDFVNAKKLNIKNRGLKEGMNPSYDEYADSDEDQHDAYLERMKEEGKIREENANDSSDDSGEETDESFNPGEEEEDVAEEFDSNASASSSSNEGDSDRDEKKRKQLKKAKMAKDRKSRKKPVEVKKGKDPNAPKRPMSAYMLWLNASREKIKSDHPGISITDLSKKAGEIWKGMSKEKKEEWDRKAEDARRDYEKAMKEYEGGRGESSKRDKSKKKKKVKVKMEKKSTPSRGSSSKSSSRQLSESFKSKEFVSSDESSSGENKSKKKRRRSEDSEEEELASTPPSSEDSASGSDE

Experiments:
Assay in all cases: affinity purification with mass spectrometry; FLAG-tagged CHD N- or C-terminal fragment overexpressed in Expi293 cells; nuclear fraction lysed in 50 mM Tris-HCl, 150 mM NaCl, 0.5% IGEPAL, pH 7.5, with nuclease and sonication; FLAG antibody beads 2 h; washes with 200 mM NaCl; against FLAG empty vector; triplicate
[1] = molecular target: FLAG-tagged CHD1 C-terminus (human) (UniProt O14646)
[2] = molecular target: FLAG-tagged CHD6 N-terminus (human) (UniProt Q8TD26)
[3] = molecular target: FLAG-tagged CHD5 N-terminus (human) (UniProt Q8TDI0)
[4] = molecular target: FLAG-tagged CHD3 N-terminus (human) (UniProt Q12873)
[5] = molecular target: FLAG-tagged CHD4 N-terminus (human) (UniProt Q14839)
[6] = molecular target: FLAG-tagged CHD1 N-terminus (human) (UniProt O14646)
[7] = molecular target: FLAG-tagged CHD2 N-terminus (human) (UniProt O14647)
[8] = molecular target: FLAG-tagged CHD8 N-terminus (human) (UniProt Q9HCK8)
[9] = molecular target: FLAG-tagged CHD3 C-terminus (human) (UniProt Q12873)
[10] = molecular target: FLAG-tagged CHD5 C-terminus (human) (UniProt Q8TDI0)

Molecule: acid nuclear phosphoprotein ANP32A (from UniProt P39687 1-249)
- binding [2]: binds

Molecule: acid nuclear phosphoprotein ANP32B (from UniProt Q92688 1-251)
- binding [2]: binds

Molecule: bromodomain‐containing protein (BRD8) (from UniProt Q9H0E9 1-1235)
- binding [3]: binds

Molecule: casein kinase II complex subunit CSK2B (from UniProt P67870 1-215)
- binding [4]: binds
- binding [5]: binds

Molecule: casein kinase II complex subunit CSK21 (from UniProt P68400 1-391)
- binding [4]: binds
- binding [5]: binds

Molecule: euchromatic histone lysine methyltransferase EHMT1 (from UniProt Q9H9B1 1-1298)
- binding [6]: binds
- binding [7]: binds
- binding [2]: binds

Molecule: euchromatic histone lysine methyltransferase EHMT2 (from UniProt Q96KQ7 1-1210)
- binding [6]: binds
- binding [7]: binds
- binding [2]: binds

B3: TAF1C (protein, UniProt Q15572 1-869)
chain: MDFPSSLRPALFLTGPLGLSDVPDLSFMCSWRDALTLPEAQPQNSENGALHVTKDLLWEPATPGPLPMLPPLIDPWDPGLTARDLLFRGGCRYRKRPRVVLDVTEQISRFLLDHGDVAFAPLGKLMLENFKLEGAGSRTKKKTVVSVKKLLQDLGGHQPWGCPWAYLSNRQRRFSILGGPILGTSVASHLAELLHEELVLRWEQLLLDEACTGGALAWVPGRTPQFGQLVYPAGGAQDRLHFQEVVLTPGDNPQFLGKPGRIQLQGPVRQVVTCTVQGESKALIYTFLPHWLTCYLTPGPFHPSSALLAVRSDYHCAVWKFGKQWQPTLLQAMQVEKGATGISLSPHLPGELAICSRSGAVCLWSPEDGLRQIYRDPETLVFRDSSSWRWADFTAHPRVLTVGDRTGVKMLDTQGPPGCGLLLFRLGAEASCQKGERVLLTQYLGHSSPKCLPPTLHLVCTQFSLYLVDERLPLVPMLKWNHGLPSPLLLARLLPPPRPSCVQPLLLGGQGGQLQLLHLAGEGASVPRLAGPPQSLPSRIDSLPAFPLLEPKIQWRLQERLKAPTIGLAAVVPPLPSAPTPGLVLFQLSAAGDVFYQQLRPQVDSSLRRDAGPPGDTQPDCHAPTASWTSQDTAGCSQWLKALLKVPLAPPVWTAPTFTHRQMLGSTELRREEEEGQRLGVLRKAMARGQLLLQRDLGSLPAAEPPPAPESGLEDKLSERLGEAWAGRGAAWWERQQGRTSEPGRQTRRPKRRTQLSSSFSLSGHVDPSEDTSSPHSPEWPPADALPLPPTTPPSQELTPDACAQGVPSEQRQMLRDYMAKLPPQRDTPGCATTPPHSQASSVRATRSQQHTPVLSSSQPLRKKPRMGF
- binding [6]: binds

B5: TAF1B (protein, UniProt Q53T94 1-588)
chain: MDLEEAEEFKERCTQCAAVSWGLTDEGKYYCTSCHNVTERYQEVTNTDLIPNTQIKALNRGLKKKNNTEKGWDWYVCEGFQYILYQQAEALKNLGVGPELKNDVLHNFWKRYLQKSKQAYCKNPVYTTGRKPTVLEDNLSHSDWASEPELLSDVSCPPFLESGAESQSDIHTRKPFPVSKASQSETSVCSGSLDGVEYSQRKEKGIVKMTMPQTLAFCYLSLLWQREAITLSDLLRFVEEDHIPYINAFQHFPEQMKLYGRDRGIFGIESWPDYEDIYKKTVEVGTFLDLPRFPDITEDCYLHPNILCMKYLMEVNLPDEMHSLTCHVVKMTGMGEVDFLTFDPIAKMAKTVKYDVQAVAIIVVVLKLLFLLDDSFEWSLSNLAEKHNEKNKKDKPWFDFRKWYQIMKKAFDEKKQKWEEARAKYLWKSEKPLYYSFVDKPVAYKKREMVVNLQKQFSTLVESTATAGKKSPSSFQFNWTEEDTDRTCFHGHSLQGVLKEKGQSLLTKNSLYWLSTQKFCRCYCTHVTTYEESNYSLSYQFILNLFSFLLRIKTSLLHEEVSLVEKKLFEKKYSVKRKKSRSKKVRRH
- binding [6]: binds

Next, values leading:

- binding [1]: binds
Molecule: SPT16 homolog (from UniProt Q9Y5B9 1-1047)

- binding [4]: binds
- binding [5]: binds
Molecule: casein kinase II complex subunit CSK22 (from UniProt P19784 1-350)

- binding [6]: binds
- binding [7]: binds
- binding [4]: binds
- binding [8]: binds
Molecule: round spermatid basic protein (RSBN1) (from UniProt Q5VWQ0 1-802)

- binding [1]: binds
Molecule: structure‐specific recognition protein (from UniProt Q08945 1-709)

- binding [1]: binds
B1: barrier to autointegration factor (protein, UniProt O75531 1-89)
chain: MTTSQKHRDFVAEPMGEKPVGSLAGIGEVLGKKLEERGFDKAYVVLGQFLVLKKDEDLFREWLKDTCGANAKQSRDCFGCLREWCDAFL

- binding [9]: binds
- binding [10]: binds
B2: activity‐dependent neuroprotective protein (ADNP) (protein, UniProt Q9H2P0 1-1102)
chain: MFQLPVNNLGSLRKARKTVKKILSDIGLEYCKEHIEDFKQFEPNDFYLKNTTWEDVGLWDPSLTKNQDYRTKPFCCSACPFSSKFFSAYKSHFRNVHSEDFENRILLNCPYCTFNADKKTLETHIKIFHAPNASAPSSSLSTFKDKNKNDGLKPKQADSVEQAVYYCKKCTYRDPLYEIVRKHIYREHFQHVAAPYIAKAGEKSLNGAVPLGSNAREESSIHCKRCLFMPKSYEALVQHVIEDHERIGYQVTAMIGHTNVVVPRSKPLMLIAPKPQDKKSMGLPPRIGSLASGNVRSLPSQQMVNRLSIPKPNLNSTGVNMMSSVHLQQNNYGVKSVGQGYSVGQSMRLGLGGNAPVSIPQQSQSVKQLLPSGNGRSYGLGSEQRSQAPARYSLQSANASSLSSGQLKSPSLSQSQASRVLGQSSSKPAAAATGPPPGNTSSTQKWKICTICNELFPENVYSVHFEKEHKAEKVPAVANYIMKIHNFTSKCLYCNRYLPTDTLLNHMLIHGLSCPYCRSTFNDVEKMAAHMRMVHIDEEMGPKTDSTLSFDLTLQQGSHTNIHLLVTTYNLRDAPAESVAYHAQNNPPVPPKPQPKVQEKADIPVKSSPQAAVPYKKDVGKTLCPLCFSILKGPISDALAHHLRERHQVIQTVHPVEKKLTYKCIHCLGVYTSNMTASTITLHLVHCRGVGKTQNGQDKTNAPSRLNQSPSLAPVKRTYEQMEFPLLKKRKLDDDSDSPSFFEEKPEEPVVLALDPKGHEDDSYEARKSFLTKYFNKQPYPTRREIEKLAASLWLWKSDIASHFSNKRKKCVRDCEKYKPGVLLGFNMKELNKVKHEMDFDAEWLFENHDEKDSRVNASKTADKKLNLGKEDDSSSDSFENLEEESNESGSPFDPVFEVEPKISNDNPEEHVLKVIPEDASESEEKLDQKEDGSKYETIHLTEEPTKLMHNASDSEVDQDDVVEWKDGASPSESGPGSQQVSDFEDNTCEMKPGTWSDESSQSEDARSSKPAAKKKATMQGDREQLKWKNSSYGKVEGFWSKDQSQWKNASENDERLSNPQIEWQNSTIDSEDGEQFDNMTDGVAEPMHGSLAGVKLSSQQA

- binding [6]: binds
B4: TAF1D (protein, UniProt Q9H5J8 1-278)
chain: MDKSGIDSLDHVTSDAVELANRSDNSSDSSLFKTQCIPYSPKGEKRNPIRKFVRTPESVHASDSSSDSSFEPIPLTIKAIFERFKNRKKRYKKKKKRRYQPTGRPRGRPEGRRNPIYSLIDKKKQFRSRGSGFPFLESENEKNAPWRKILTFEQAVARGFFNYIEKLKYEHHLKESLKQMNVGEDLENEDFDSRRYKFLDDDGSISPIEESTAEDEDATHLEDNECDIKLAGDSFIVSSEFPVRLSVYLEEEDITEEAALSKKRATKAKNTGQRGLKM
